PubChem BioAssay AID1259308 | NCATS | 2017
In all, the deposit lists about 59,000 reagents; this is a random part of them. In the full data, about 1,510 (2.6%) got an active call. 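Calls use total luciferase alone and ignore viability, so some active siRNAs may act by altering cell number.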 Entries without a mark were called inactive. Reagents against one gene are numbered here. Not all columns of the deposit are shown. No sequences are given here.

Assay: 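Knock-downs that increase output of a recombinant reporter protein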 (primary screen)
Cell system: human HEK293 embryonic kidney cells stably expressing firefly luciferase (HEK-CMV-Luc2-Hygro)
Reagent: single siRNA against human genes, 0.8 pmol siRNA per well
Timing: 72 h
Measured: 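Reporter luminescence and viable-cell signal on separate replicate plates, given as percent of non-targeting control and median/MAD z-scores, plus per-cell luciferase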
Direction: total luciferase, z-score and total luciferase, % of control: higher = more reporter protein produced
Rule for the call: 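Active when the median/MAD z-score for overall luciferase is greater than 3; a gene was taken forward for validation with new siRNAs if at least two of its three siRNAs passed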
Calls: active = raised luciferase; inactive = no rise

SOCS3 #1 — total luciferase, z-score = -1.08; total luciferase, % of control = 60.5
SOCS3 #2 — total luciferase, z-score = 1.2; total luciferase, % of control = 106
SOCS3 #3 — total luciferase, z-score = -0.961; total luciferase, % of control = 62.8
EFCAB14 #1 — total luciferase, z-score = 0.01; total luciferase, % of control = 82.1
EFCAB14 #2 — total luciferase, z-score = 0.127; total luciferase, % of control = 84.4
EFCAB14 #3 — total luciferase, z-score = -1.19; total luciferase, % of control = 58.2
RHBDD3 #1 — total luciferase, z-score = -0.404; total luciferase, % of control = 73.8
RHBDD3 #2 — total luciferase, z-score = 1.3; total luciferase, % of control = 108
RHBDD3 #3 — total luciferase, z-score = 1.06; total luciferase, % of control = 103
NFIC #1 — total luciferase, z-score = 3; total luciferase, % of control = 141
NFIC #2 — total luciferase, z-score = 0.132; total luciferase, % of control = 84.5
NFIC #3 — total luciferase, z-score = 0.489; total luciferase, % of control = 91.6
KLK1 #1 — total luciferase, z-score = 0.283; total luciferase, % of control = 87.5
KLK1 #2 — total luciferase, z-score = 0.872; total luciferase, % of control = 99.2
KLK1 #3 — total luciferase, z-score = 3.58 (active); total luciferase, % of control = 153
PPP1R2P4 #1 — total luciferase, z-score = -1.06; total luciferase, % of control = 60.9
PPP1R2P4 #2 — total luciferase, z-score = -0.685; total luciferase, % of control = 68.3
PPP1R2P4 #3 — total luciferase, z-score = -1.91; total luciferase, % of control = 43.9
REP15 #1 — total luciferase, z-score = -0.703; total luciferase, % of control = 67.9
REP15 #2 — total luciferase, z-score = -2.29; total luciferase, % of control = 36.4
REP15 #3 — total luciferase, z-score = 0.868; total luciferase, % of control = 99.2
SLC34A1 #1 — total luciferase, z-score = 1.33; total luciferase, % of control = 108
SLC34A1 #2 — total luciferase, z-score = 1.41; total luciferase, % of control = 110
SLC34A1 #3 — total luciferase, z-score = -1.29; total luciferase, % of control = 56.2
IRF2BP2 #1 — total luciferase, z-score = 0.831; total luciferase, % of control = 98.4
IRF2BP2 #2 — total luciferase, z-score = 0.473; total luciferase, % of control = 91.3
IRF2BP2 #3 — total luciferase, z-score = 2.18; total luciferase, % of control = 125
RBMS2 #1 — total luciferase, z-score = -1.68; total luciferase, % of control = 48.5
RBMS2 #2 — total luciferase, z-score = 1.64; total luciferase, % of control = 115
RBMS2 #3 — total luciferase, z-score = 1.85; total luciferase, % of control = 119
SLC2A13 #1 — total luciferase, z-score = -1.47; total luciferase, % of control = 52.7
SLC2A13 #2 — total luciferase, z-score = -0.796; total luciferase, % of control = 66.1
SLC2A13 #3 — total luciferase, z-score = -0.676; total luciferase, % of control = 68.4
LRCH4 #1 — total luciferase, z-score = -1.9; total luciferase, % of control = 44.2
LRCH4 #2 — total luciferase, z-score = 1.75; total luciferase, % of control = 117
LRCH4 #3 — total luciferase, z-score = 0.199; total luciferase, % of control = 85.8
HHIP-AS1 #1 — total luciferase, z-score = -0.836; total luciferase, % of control = 65.3
HHIP-AS1 #2 — total luciferase, z-score = 0.123; total luciferase, % of control = 84.3
HHIP-AS1 #3 — total luciferase, z-score = -0.806; total luciferase, % of control = 65.9
MINAR1 #1 — total luciferase, z-score = -0.0611; total luciferase, % of control = 80.7
MINAR1 #2 — total luciferase, z-score = 1.6; total luciferase, % of control = 114
MINAR1 #3 — total luciferase, z-score = -2.66; total luciferase, % of control = 29

5 successive reagents already listed, quoted:
LRCH4 #2 — total luciferase, z-score = 1.75; total luciferase, % of control = 117
LRCH4 #3 — total luciferase, z-score = 0.199; total luciferase, % of control = 85.8
HHIP-AS1 #1 — total luciferase, z-score = -0.836; total luciferase, % of control = 65.3
HHIP-AS1 #2 — total luciferase, z-score = 0.123; total luciferase, % of control = 84.3
HHIP-AS1 #3 — total luciferase, z-score = -0.806; total luciferase, % of control = 65.9
